Assay results from patent EP2889299A1, “Fluorescent red emitting functionalizable pH probes” (Paris Sciences et Lettres - Quartier Latin, priority 2013, dated 2015).

Test: Metal screening for fluorescence quenching
Conditions: probe 5 µM; cations 10^-3 M; MOPS 30 mM, KCl 100 mM, pH 7.2; Zn2+, Mg2+, Ca2+, Fe3+, Mn2+, Cu2+
In the case of [N-]=[N+]=NCCCNC(=O)c1cc(C2=c3cc4c5c(c3Oc3c2cc2c6c3CCCN6CCC2)CCC[N+]=5CCC4)ccc1O [Compound I-1], the “fluorescence intensities in presence of metal ions compared to "naked" EDTA environment” value was “Insignificant fluctuations”.
In the case of C#CCOC(=O)N1CCN(C(=O)c2cc(C3=c4cc5c6c(c4Oc4c3cc3c7c4CCCN7CCC3)CCC[N+]=6CCC5)ccc2O)CC1 [Compound I-3], the “fluorescence intensities in presence of metal ions compared to "naked" EDTA environment” value was “same results”.
For C#CCN1CCN(C(=O)c2cc(C3=c4cc5c6c(c4Oc4c3cc3c7c4CCCN7CCC3)CCC[N+]=6CCC5)ccc2O)CC1 [Compound I-4], the “fluorescence intensities in presence of metal ions compared to "naked" EDTA environment” value was “same results”.
